PMC7224192, “MYC transcription activation mediated by OCT4 as a mechanism of resistance to 13-cisRA-mediated differentiation in neuroblastoma”
No constants are given. Whether binding was seen depends on the method and setting. For some of these results: In cells and extracts the contact can be indirect. Some entries that bind do so weakly or less than the wild type.

By UniProt entry, the sequences of proteins in these tests, tags left out.
UniProt Q01860: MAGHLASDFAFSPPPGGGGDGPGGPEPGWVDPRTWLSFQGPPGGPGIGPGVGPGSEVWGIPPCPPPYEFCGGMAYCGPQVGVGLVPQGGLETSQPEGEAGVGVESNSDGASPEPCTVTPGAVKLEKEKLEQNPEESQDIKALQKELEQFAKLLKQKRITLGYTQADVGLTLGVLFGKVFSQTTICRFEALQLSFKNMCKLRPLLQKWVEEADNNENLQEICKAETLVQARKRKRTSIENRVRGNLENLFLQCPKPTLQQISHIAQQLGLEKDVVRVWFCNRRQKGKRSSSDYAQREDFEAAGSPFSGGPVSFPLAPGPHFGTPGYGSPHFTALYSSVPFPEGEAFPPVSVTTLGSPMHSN
UniProt P49137: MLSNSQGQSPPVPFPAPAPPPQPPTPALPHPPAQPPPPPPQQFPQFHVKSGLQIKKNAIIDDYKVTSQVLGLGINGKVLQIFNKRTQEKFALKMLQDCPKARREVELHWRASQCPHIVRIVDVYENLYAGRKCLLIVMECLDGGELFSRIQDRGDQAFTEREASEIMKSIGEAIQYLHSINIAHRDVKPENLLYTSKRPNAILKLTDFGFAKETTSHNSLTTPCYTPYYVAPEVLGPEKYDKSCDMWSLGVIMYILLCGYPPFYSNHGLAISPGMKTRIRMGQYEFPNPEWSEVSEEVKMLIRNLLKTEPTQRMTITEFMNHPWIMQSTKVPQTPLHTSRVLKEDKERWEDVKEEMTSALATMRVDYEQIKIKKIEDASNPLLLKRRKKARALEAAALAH
UniProt P78527: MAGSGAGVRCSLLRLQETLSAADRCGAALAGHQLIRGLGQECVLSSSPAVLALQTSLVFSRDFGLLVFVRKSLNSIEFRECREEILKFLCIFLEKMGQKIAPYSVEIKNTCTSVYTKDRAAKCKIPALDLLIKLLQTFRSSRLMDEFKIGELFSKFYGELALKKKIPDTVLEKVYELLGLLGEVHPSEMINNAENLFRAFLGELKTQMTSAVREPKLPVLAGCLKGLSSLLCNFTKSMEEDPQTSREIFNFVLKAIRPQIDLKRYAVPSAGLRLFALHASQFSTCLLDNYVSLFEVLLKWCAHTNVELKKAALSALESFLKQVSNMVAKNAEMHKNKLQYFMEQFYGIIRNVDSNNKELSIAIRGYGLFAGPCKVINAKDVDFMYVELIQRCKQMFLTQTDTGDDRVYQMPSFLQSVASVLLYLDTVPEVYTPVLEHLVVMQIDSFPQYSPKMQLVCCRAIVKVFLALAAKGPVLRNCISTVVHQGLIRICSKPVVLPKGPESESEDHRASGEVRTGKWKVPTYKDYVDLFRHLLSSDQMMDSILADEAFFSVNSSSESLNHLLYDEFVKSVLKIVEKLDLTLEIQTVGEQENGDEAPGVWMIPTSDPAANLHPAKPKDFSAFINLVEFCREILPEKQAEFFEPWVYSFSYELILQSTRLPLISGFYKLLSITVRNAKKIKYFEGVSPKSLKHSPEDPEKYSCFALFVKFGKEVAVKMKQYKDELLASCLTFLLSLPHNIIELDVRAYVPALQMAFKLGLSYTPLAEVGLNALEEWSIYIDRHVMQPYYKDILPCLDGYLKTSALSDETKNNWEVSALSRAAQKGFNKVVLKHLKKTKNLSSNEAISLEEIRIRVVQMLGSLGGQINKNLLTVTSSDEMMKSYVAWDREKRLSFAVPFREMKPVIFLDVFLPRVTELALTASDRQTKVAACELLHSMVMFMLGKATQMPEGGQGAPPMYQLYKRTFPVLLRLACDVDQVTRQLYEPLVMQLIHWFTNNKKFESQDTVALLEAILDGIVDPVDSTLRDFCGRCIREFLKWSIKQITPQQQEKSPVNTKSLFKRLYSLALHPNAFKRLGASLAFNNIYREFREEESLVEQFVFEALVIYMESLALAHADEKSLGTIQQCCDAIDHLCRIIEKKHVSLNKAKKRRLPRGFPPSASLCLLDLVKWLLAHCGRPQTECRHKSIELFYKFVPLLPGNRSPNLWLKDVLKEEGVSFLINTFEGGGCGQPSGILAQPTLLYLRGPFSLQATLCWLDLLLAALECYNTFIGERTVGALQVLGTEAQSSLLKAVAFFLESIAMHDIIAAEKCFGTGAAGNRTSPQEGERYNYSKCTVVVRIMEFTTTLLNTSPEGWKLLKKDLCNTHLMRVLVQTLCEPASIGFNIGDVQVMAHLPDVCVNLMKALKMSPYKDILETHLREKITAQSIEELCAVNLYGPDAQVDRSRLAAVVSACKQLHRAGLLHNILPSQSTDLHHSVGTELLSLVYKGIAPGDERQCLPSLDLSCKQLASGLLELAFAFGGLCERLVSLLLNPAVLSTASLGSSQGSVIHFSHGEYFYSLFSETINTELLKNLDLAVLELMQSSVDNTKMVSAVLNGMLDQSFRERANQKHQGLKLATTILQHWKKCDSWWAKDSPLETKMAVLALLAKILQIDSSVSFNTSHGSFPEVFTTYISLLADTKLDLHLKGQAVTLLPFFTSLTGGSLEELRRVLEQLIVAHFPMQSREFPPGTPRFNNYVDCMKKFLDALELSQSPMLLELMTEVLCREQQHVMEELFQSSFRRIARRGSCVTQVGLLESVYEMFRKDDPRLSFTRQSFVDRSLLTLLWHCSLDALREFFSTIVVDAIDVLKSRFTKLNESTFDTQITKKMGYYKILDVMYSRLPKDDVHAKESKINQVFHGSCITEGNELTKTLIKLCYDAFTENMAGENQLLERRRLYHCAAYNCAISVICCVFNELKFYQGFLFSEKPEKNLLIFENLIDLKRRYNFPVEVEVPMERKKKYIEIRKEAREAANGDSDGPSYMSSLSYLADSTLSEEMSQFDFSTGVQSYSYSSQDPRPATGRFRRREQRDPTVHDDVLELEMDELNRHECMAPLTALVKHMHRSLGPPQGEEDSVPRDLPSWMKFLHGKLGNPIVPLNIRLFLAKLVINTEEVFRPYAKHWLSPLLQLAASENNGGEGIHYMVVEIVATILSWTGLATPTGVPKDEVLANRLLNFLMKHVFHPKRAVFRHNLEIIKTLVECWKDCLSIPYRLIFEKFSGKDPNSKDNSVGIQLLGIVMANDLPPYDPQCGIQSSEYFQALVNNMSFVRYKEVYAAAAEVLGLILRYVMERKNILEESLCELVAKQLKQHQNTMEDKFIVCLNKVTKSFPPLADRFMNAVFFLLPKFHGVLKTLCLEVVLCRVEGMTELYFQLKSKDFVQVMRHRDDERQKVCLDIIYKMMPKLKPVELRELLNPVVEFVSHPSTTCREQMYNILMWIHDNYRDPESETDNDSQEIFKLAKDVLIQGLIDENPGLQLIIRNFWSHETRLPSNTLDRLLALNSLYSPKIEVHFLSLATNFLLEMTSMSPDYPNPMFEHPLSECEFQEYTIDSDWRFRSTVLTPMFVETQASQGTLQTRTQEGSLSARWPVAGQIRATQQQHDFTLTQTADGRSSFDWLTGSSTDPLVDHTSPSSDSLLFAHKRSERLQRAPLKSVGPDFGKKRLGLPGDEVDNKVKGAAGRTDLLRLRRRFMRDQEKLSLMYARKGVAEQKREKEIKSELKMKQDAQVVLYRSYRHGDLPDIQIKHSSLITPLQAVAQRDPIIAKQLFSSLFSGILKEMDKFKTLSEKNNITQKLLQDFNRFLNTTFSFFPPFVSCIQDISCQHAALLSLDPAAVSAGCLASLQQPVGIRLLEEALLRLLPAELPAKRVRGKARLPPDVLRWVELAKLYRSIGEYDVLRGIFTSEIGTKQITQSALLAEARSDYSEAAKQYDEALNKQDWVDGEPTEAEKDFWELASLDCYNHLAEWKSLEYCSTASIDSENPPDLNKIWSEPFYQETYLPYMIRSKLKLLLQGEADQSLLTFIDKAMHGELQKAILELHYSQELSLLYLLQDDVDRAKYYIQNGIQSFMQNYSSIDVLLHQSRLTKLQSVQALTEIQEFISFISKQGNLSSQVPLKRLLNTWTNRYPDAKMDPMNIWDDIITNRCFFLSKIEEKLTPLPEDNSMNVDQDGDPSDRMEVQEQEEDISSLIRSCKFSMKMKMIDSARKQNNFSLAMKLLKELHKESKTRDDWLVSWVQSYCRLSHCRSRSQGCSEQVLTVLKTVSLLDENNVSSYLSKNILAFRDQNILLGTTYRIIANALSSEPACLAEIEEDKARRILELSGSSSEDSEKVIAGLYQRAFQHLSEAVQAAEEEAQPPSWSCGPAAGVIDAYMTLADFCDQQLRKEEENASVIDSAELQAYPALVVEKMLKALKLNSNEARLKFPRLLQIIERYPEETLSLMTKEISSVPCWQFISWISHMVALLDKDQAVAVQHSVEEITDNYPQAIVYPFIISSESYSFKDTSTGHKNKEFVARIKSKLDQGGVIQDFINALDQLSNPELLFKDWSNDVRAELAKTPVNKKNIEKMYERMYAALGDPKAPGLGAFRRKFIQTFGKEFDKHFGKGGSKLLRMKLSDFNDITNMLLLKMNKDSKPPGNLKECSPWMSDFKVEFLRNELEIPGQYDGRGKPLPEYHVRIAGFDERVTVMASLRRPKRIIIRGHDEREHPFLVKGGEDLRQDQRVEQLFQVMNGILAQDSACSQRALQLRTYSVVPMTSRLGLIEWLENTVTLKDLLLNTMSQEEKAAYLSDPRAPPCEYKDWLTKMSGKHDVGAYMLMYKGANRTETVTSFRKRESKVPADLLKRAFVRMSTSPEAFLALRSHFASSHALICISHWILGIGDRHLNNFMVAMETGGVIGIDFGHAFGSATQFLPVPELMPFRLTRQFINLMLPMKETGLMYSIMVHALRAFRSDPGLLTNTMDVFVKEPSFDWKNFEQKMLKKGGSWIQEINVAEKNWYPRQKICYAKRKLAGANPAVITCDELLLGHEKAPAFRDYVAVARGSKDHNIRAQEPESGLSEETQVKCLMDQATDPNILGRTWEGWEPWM

Key:
[1] = biological target: NH2-terminal His-tagged human recombinant OCT4 protein (human) (UniProt Q01860); assay: pull-down; Ni-NTA pull down using purified proteins (His-OCT4 and MK2-mycDDK); both purified
[2] = biological target: mycDDK-tagged wild-type OCT4 (POU5F1) (human) (UniProt Q01860); assay: co-IP; immunoprecipitation from subcellular fractions (nuclear) of LHN-R cells stably transduced with doxycycline-inducible OCT4-mycDDK; immunoblot
[3] = biological target: COOH-terminal mycDDK-tagged human recombinant MK2 protein (human) (UniProt P49137); assay: co-IP; immunoprecipitation by anti-FLAG using purified proteins (MK2-mycDDK and His-OCT4); both purified

binding [2]	Substance	further results
–	COOH-terminal mycDDK-tagged human recombinant MK2 protein (from UniProt P49137 1-400) (enzyme)	binding [1]: binds
binds	MAPKAPK2 (MK2), endogenous (from UniProt P49137 1-400) (enzyme)	–
–	NH2-terminal His-tagged human recombinant OCT4 protein (from UniProt Q01860 1-360)	binding [3]: binds
binds	DNA-PKcs, endogenous (from UniProt P78527 1-4128) (enzyme)	–
